Measurements published in paper doi:10.1101/2022.09.17.508354.

Tests used:
[1] = molecular target: recombinant 6x-His-PfPFD6 (Plasmodium falciparum 3D7 prefoldin subunit 6) (Plasmodium falciparum 3D7) (UniProt Q8I3Y6); test: ELISA
[2] = molecular target: T1, recombinant 6x-His-PfPFD3 (Plasmodium falciparum 3D7 prefoldin subunit 3) (Plasmodium falciparum 3D7) (UniProt Q8IBR6); test: MST
T1 sequence (chain, RED-NHS dye label (where it was the labelled partner in MST)): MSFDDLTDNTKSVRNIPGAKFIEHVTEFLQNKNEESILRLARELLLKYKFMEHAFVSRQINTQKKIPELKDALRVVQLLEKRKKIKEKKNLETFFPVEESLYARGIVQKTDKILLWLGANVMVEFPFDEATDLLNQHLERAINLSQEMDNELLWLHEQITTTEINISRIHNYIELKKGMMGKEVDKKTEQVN

Substance: Pfα-tubulin-I (protein used in ELISA and SPR) (from UniProt Q6ZLZ9 1-453)
- binding [1]: binds

Substance: recombinant 6x-His-PfPFD1 (Plasmodium falciparum 3D7 prefoldin subunit 1) (from UniProt Q8IIS7)
- binding [2]: binds

Results are given in words; binding and its absence hold for the method and conditions named. Binding can be weak; no strength is given. For some assays here: Sequences can lack the tags named with a protein.
